Measurements published in paper PMC10659539.
Results are given in words; binding and its absence hold for the method and conditions named. Binding seen in cells or lysates may run through a third protein. Some entries that bind do so weakly or less than the wild type.

The chains behind the UniProt entries cited, without tags or fusion partners.
UniProt P43006: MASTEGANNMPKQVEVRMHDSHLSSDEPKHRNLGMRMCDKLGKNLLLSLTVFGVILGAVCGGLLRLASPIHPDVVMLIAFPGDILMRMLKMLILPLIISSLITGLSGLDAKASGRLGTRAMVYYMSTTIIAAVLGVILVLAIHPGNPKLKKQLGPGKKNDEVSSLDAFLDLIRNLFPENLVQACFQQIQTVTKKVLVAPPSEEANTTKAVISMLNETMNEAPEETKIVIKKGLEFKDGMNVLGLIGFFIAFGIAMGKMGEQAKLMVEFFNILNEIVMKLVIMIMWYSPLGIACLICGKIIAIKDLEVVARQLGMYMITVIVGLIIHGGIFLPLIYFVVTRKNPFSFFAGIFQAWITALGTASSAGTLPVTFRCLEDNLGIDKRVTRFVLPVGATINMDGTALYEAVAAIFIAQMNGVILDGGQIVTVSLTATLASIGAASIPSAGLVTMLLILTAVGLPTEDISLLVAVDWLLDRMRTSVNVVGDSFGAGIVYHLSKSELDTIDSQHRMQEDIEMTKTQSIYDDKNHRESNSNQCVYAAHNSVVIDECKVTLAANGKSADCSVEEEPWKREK

Assays:
[1] = biological target: GLT-1, endogenous in mouse brain (mouse (endogenous in mouse brain)) (UniProt P43006); test: co-IP; endogenous proteins from lysates of primary neurons and of mouse brain; which antibody precipitated is not given
[2] = biological target: GLT-1, endogenous in primary neurons (UniProt P43006); test: as above

Row | Substance | binding [1] | binding [2]
1 | PS2, endogenous in mouse brain (from UniProt Q61144 1-448) | binds | –
2 | PS2, endogenous in primary neurons (from UniProt Q61144 1-448) | – | binds
